PubChem BioAssay AID504793 – Drosophila RNAi Screening Center | 2011

Aim: 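Knock-downs allowing continued mitosis even though DNA is damaged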 (primary screen)
Cell system: Drosophila S2R+ cells
Reagent: long dsRNA against Drosophila genes, about 0.25 µg dsRNA per well
Duration: 4 days of dsRNA, then 4 hours of drug before read-out
Treatment: doxorubicin 0.5 µM for 4 hours to cause double-strand breaks, in cells also given a low, harmless dose of dsRNA against nbs to sensitise the assay
Read-out: 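Mitotic index as the number of phospho-histone H3-positive cells in each well following doxorubicin, given as raw counts without normalisation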
Scale: mitotic cells: higher = more cells in mitosis, weaker G2 arrest
Active means: 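Genes are called active only when high mitotic counts were reproduced with independent dsRNAs and mitosis was checked for delay without damage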
Meaning of the calls: active = confirmed in follow-up tests; inactive = not confirmed
The screen tested about 23,000 reagents; this is an unselected part of those that have a named target and a result. Of all reagents, 62 (0.27%) are marked active. 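Calls come from follow-up tests whose scores are not deposited, so confirmed genes may have low counts here; counts are not normalised per plate.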 Raw values are not corrected between plates. Entries without a mark were called inactive. The numbers tell different reagents against one gene apart. A plus sign joins genes that one reagent is predicted to hit.

{"Gene": "Jon65Aiii", "dsRNA no.": 1, "mitotic cells, replicate 1": 9}
{"Gene": "Jon65Aiii", "dsRNA no.": 2, "mitotic cells, replicate 1": 11}
{"Gene": "CG10681", "dsRNA no.": 1, "mitotic cells, replicate 1": 5}
{"Gene": "CG10681", "dsRNA no.": 2, "mitotic cells, replicate 1": 8}
{"Gene": "CG10681", "dsRNA no.": 3, "mitotic cells, replicate 1": 6}
{"Gene": "CG42375 + CG9288", "dsRNA no.": 1, "mitotic cells, replicate 1": 4}
{"Gene": "AlkB", "dsRNA no.": 1, "mitotic cells, replicate 1": 29}
{"Gene": "Nup44A", "dsRNA no.": 1, "mitotic cells, replicate 1": 8}
{"Gene": "Nup44A", "dsRNA no.": 2, "mitotic cells, replicate 1": 3}
{"Gene": "CG15877", "dsRNA no.": 1, "mitotic cells, replicate 1": 9}
{"Gene": "CG2528", "dsRNA no.": 1, "mitotic cells, replicate 1": 5}
{"Gene": "CG30271", "dsRNA no.": 1, "mitotic cells, replicate 1": 5}
{"Gene": "CG30271", "dsRNA no.": 2, "mitotic cells, replicate 1": 4}
{"Gene": "CtsL2", "dsRNA no.": 1, "mitotic cells, replicate 1": 3}
{"Gene": "Col4a1", "dsRNA no.": 1, "mitotic cells, replicate 1": 7}
{"Gene": "CG13202", "dsRNA no.": 1, "mitotic cells, replicate 1": 6}
{"Gene": "CG5808", "dsRNA no.": 1, "mitotic cells, replicate 1": 7}
{"Gene": "GCC185", "dsRNA no.": 1, "mitotic cells, replicate 1": 5}
{"Gene": "tsg", "dsRNA no.": 1, "mitotic cells, replicate 1": 6}
{"Gene": "tsg", "dsRNA no.": 2, "mitotic cells, replicate 1": 16}
{"Gene": "RSG7", "dsRNA no.": 1, "mitotic cells, replicate 1": 16}
{"Gene": "RSG7", "dsRNA no.": 2, "mitotic cells, replicate 1": 5}
{"Gene": "Mpcp2", "dsRNA no.": 1, "mitotic cells, replicate 1": 6}

Not a retest: entries from further up.
{"Gene": "CG15877", "dsRNA no.": 1, "mitotic cells, replicate 1": 9}
{"Gene": "CG2528", "dsRNA no.": 1, "mitotic cells, replicate 1": 5}
